The exact form of at least one protein or probe is not confirmed. For part of these data: Negatives hold for the conditions tested. For part of these data: At least one verdict was read from the data and is not stated in words by the source. For part of these data: A weaker result is weaker than the reference pair of the same experiment. For part of these data: At least one result comes from cells or an extract, where the contact may be indirect.
Assays:
MBP-PRRX1A (MBP-PA) = test: EMSA; conditions: 10 mM Mg2+; EMSA: 20 mM Tris-HCl pH 7.4, 10 mM MgCl2, 2.5% glycerol, 0.05% NP-40, 0.1 ug/ul BSA, RT, 200 nM DNA; recombinant protein; protein details: N-term MBP (pMAL-c2X)
MBP-PRRX1B (MBP-PB) = MBP-PRRX1B (MBP-PB) (UniProt P54821); test: pull-down; conditions: recombinant protein, protein details: N-term MBP (pMAL-c2X)
His-PRRX1A (His-PA) = test: MST; conditions: 10 mM Mg2+, Kd only in figure; MST: 20 mM Tris-HCl pH 7.4, 150 mM NaCl, 10 mM MgCl2, 2.5% glycerol, 0.05% Tween 20, RT; recombinant protein; protein details: His (pET-28a); label: 3' 6-FAM on strand 1
Ku70 + Ku80 + DNA-PKcs = test: pull-down; conditions: protein in an extract, label: 3' biotin on strand 1
MBP-PA N = test: pull-down; conditions: recombinant protein; protein details: N-term MBP; label: 3' biotin on strand 1
MBP-PA deltaC = test: pull-down; conditions: recombinant protein; protein details: N-term MBP; label: 3' biotin on strand 1
[1] = binds, weaker than PA, label: 3' biotin on strand 1

By UniProt entry, the sequences of proteins in these tests, tags left out. Where a name states a change or a piece, a line headed by the entry shows the natural chain unless it says otherwise.
UniProt P54821: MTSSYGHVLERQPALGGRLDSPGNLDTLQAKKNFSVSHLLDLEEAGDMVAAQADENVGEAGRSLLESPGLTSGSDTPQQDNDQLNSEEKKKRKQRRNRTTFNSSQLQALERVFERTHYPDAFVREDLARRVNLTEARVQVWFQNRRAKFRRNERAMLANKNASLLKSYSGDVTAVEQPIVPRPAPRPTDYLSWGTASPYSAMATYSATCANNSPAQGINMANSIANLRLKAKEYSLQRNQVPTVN

Question: Does “AAGATGTTGTTTACACGAGGGCTCGAGCCCTCGTGTAAACAACATCTTTTTTTG (double strand) [blunt dsDNA 54 bp, unlabeled (EMSA)]” bind (MBP-PRRX1A (MBP-PA))?
Answer: Result: binds

Question: Does “CAAAAAAAGATGTTGTTTACACGAGGGCTCGAGCCCTCGTGTAAACAACATCTT / GAGCCCTCGTGTAAACAACATCTTTTTTTG [3' overhang DNA (Oligo#1-A/#2-S)]” bind (MBP-PRRX1B (MBP-PB); binds, weaker than PA, label: 3' biotin on strand 2)?
Answer: Result: binds more weakly

Question: Does “AAGATGTTGTTTACACGAGGGCTCGAGCCCTCGTGTAAACAACATCTTTTTTTG / CAAAAAAAGATGTTGTTTACACGAGGGCTCGAGCCCTCGTGTAAACAACAT [MST 5' overhang (Oligo#3-S/#4-A)]” bind (His-PRRX1A (His-PA))?
Answer: Result: binds

Question: Does “AAGATGTTGTTTACACGAGGGCTCGAGCCCTCGTGTAAACAACATCTTTTTTTG / CAAAAAAAGATGTTGTTTACACGAGGGCTCGAGCCCTCGTGTAAACAA [MST 5' overhang (Oligo#3-S/#5-A)]” bind (His-PRRX1A (His-PA))?
Answer: Result: binds

Question: Does “AAGATGTTGTTTACACGAGGGCTCGAGCCCTCGTGTAAACAACATCTTTTTTTG / CAAAAAAAGATGTTGTTTACACGAGGGCTC [MST 5' overhang (Oligo#3-S/#6-A)]” bind (His-PRRX1A (His-PA))?
Answer: Result: binds

Question: Does “GAGCCCTCGTGTAAACAACATCTTTTTTTG [ssDNA Oligo#2-S]” bind (MBP-PRRX1B (MBP-PB); label: 3' biotin, single-stranded DNA)?
Answer: Result: no binding

Question: Does “AAGATGTTGTTTACACGAGGGCTCGAGCCCTCGTGTAAACAACATCTTTTTTTG / CAAAAAAAGATGTTGTTTACACGAGGGCTC [5' overhang DNA (Oligo#1-S/#2-A)]” bind (MBP-PRRX1B (MBP-PB); [1])?
Answer: Result: binds more weakly

Question: Does “AAGATGTTGTTTACACGAGGGCTCGAGCCCTCGTGTAAACAACATCTTTTTTTG (double strand) [blunt dsDNA 54 bp, biotinylated (Oligo#1-S/#1-A)]” bind (Ku70 + Ku80 + DNA-PKcs; EV control lysate, less than with PRRX1A)?
Answer: Result: binds more weakly

Question: Does “AAGATGTTGTTTACACGAGGGCTCGAGCCCTCGTGTAAACAACATCTTTTTTTG (double strand) [blunt dsDNA 54 bp, biotinylated (Oligo#1-S/#1-A)]” bind (Ku70 + Ku80 + DNA-PKcs; lysate with FLAG-PRRX1A overexpressed, more enriched than EV)?
Answer: Result: binds

Question: Does “AAGATGTTGTTTACACGAGGGCTCGAGCCCTCGTGTAAACAACATCTTTTTTTG (double strand) [blunt dsDNA 54 bp, biotinylated (Oligo#1-S/#1-A)]” bind (MBP-PA N)?
Answer: Result: no binding

Question: Does “AAGATGTTGTTTACACGAGGGCTCGAGCCCTCGTGTAAACAACATCTTTTTTTG (double strand) [blunt dsDNA 54 bp, biotinylated (Oligo#1-S/#1-A)]” bind (MBP-PA deltaC)?
Answer: Result: no binding

Question: Does “AAGATGTTGTTTACACGAGGGCTCGAGCCCTCGTGTAAACAACATCTTTTTTTG (double strand) [blunt dsDNA 54 bp, biotinylated (Oligo#1-S/#1-A)]” bind (MBP-PRRX1B (MBP-PB); [1])?
Answer: Result: binds more weakly

From paper PMC11925728
